Record: PubChem BioAssay AID1508588 (Peter MacCallum Cancer Centre, 2020)

- Screen: 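Knock-downs boosting vemurafenib effects on melanoma cell growth or lactate release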 (primary screen)
- Cell system: human WM266.4 melanoma cells (BRAF V600 mutant)
- Reagent: siRNA pool against human genes, 40 nM
- Timing: 96 h from transfection to read-out
- Treatment: vemurafenib 300 nM (about IC25), added 48 h after transfection, for 48 h; comparison arm got DMSO vehicle only
- Detection: 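Cell gain (DAPI nuclei at end minus before drug, mean of two replicates) and medium lactate by absorbance per cell, both as ratio to non-targeting siRNA, also grouped into fold-change classes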
- Scale: cell gain with vemurafenib: higher = more cell gain than with non-targeting siRNA; lactate per cell with vemurafenib: higher = more lactate made per cell
- Hit rule: 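Enhancement is called by pairing each knock-down's vehicle-arm and drug-arm fold-change classes for viability or glycolysis; which class combinations qualify is not given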
- Calls: active = enhances vemurafenib effect; inactive = no enhancement seen
Here is one part, drawn at random, of about 18,000 deposited reagents. 790 of all reagents (4.4%) count as active. 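Calls rest on a combination of fold-change classes in drug and vehicle arms, not all shown here.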 A number with no mark means an inactive call. No sequences are given here.

PTPN12
- cell gain with vemurafenib: 0.22
- lactate per cell with vemurafenib: 2.81

DEPP1
- cell gain with vemurafenib: 0.49
- lactate per cell with vemurafenib: 0.68

NRIP2
- cell gain with vemurafenib: 0.47
- lactate per cell with vemurafenib: 1.56

PYDC1
- cell gain with vemurafenib: 0.51
- lactate per cell with vemurafenib: 0.84

MORN4
- cell gain with vemurafenib: 0.36
- lactate per cell with vemurafenib: 0.74

TECPR1
- cell gain with vemurafenib: 0.44
- lactate per cell with vemurafenib: 0.99

OBSL1
- cell gain with vemurafenib: 0.04
- lactate per cell with vemurafenib: 3.12

GOLPH3L
- cell gain with vemurafenib: 0.35
- lactate per cell with vemurafenib: 1.22

ZSWIM3
- cell gain with vemurafenib: 0.68
- lactate per cell with vemurafenib: 0.81

TPCN1
- cell gain with vemurafenib: 0.38
- lactate per cell with vemurafenib: 1.62

ZNF391
- cell gain with vemurafenib: 0.89
- lactate per cell with vemurafenib: 0.98

HELQ
- cell gain with vemurafenib: 0.46
- lactate per cell with vemurafenib: 0.42

ZNF791
- cell gain with vemurafenib: 0.58
- lactate per cell with vemurafenib: 0.64

A4GALT
- cell gain with vemurafenib: 0.02
- lactate per cell with vemurafenib: 0.72

CDKN1B
- cell gain with vemurafenib: 0.31
- lactate per cell with vemurafenib: 0.68

PHETA2
- cell gain with vemurafenib: 0.43
- lactate per cell with vemurafenib: 0.86

LPGAT1
- cell gain with vemurafenib: 0.87
- lactate per cell with vemurafenib: 0.88

LAG3
- cell gain with vemurafenib: 0.68
- lactate per cell with vemurafenib: 1.44

TRPV6
- cell gain with vemurafenib: 0.75
- lactate per cell with vemurafenib: 1.18

BTBD1
- cell gain with vemurafenib: 0.45 (active)
- lactate per cell with vemurafenib: 0.35

TAAR5
- cell gain with vemurafenib: 0.53
- lactate per cell with vemurafenib: 2.08

AP2S1
- cell gain with vemurafenib: 0.9
- lactate per cell with vemurafenib: 0.7

GORAB
- cell gain with vemurafenib: 0.51
- lactate per cell with vemurafenib: 0.57

LARP1B
- cell gain with vemurafenib: 0.98
- lactate per cell with vemurafenib: 0.92

GPBAR1
- cell gain with vemurafenib: 0.85
- lactate per cell with vemurafenib: 0.68

FREM1
- cell gain with vemurafenib: 0.65
- lactate per cell with vemurafenib: 0.82

CCDC62
- cell gain with vemurafenib: 0.58
- lactate per cell with vemurafenib: 1.02

GRM4
- cell gain with vemurafenib: 0.84
- lactate per cell with vemurafenib: 0.85

VPS37A
- cell gain with vemurafenib: 0.83
- lactate per cell with vemurafenib: 0.56

FLRT3
- cell gain with vemurafenib: 0.93
- lactate per cell with vemurafenib: 0.7

HHAT
- cell gain with vemurafenib: 0.64
- lactate per cell with vemurafenib: 0.93

NIPSNAP3A
- cell gain with vemurafenib: 0.36
- lactate per cell with vemurafenib: 0.52

GUCA1B
- cell gain with vemurafenib: 1.03
- lactate per cell with vemurafenib: 0.58

BEX3
- cell gain with vemurafenib: 0.27
- lactate per cell with vemurafenib: 2.62

CES2
- cell gain with vemurafenib: 0.36
- lactate per cell with vemurafenib: 1.73

PTP4A2
- cell gain with vemurafenib: 0.43
- lactate per cell with vemurafenib: 2.03

RAB31
- cell gain with vemurafenib: 0.23
- lactate per cell with vemurafenib: 2.4

WDR45
- cell gain with vemurafenib: 0.66
- lactate per cell with vemurafenib: 0.99

GOLGA8B
- cell gain with vemurafenib: 0.91
- lactate per cell with vemurafenib: 0.88

RAB3C
- cell gain with vemurafenib: 0.22
- lactate per cell with vemurafenib: 1.14

CKM
- cell gain with vemurafenib: 0.96
- lactate per cell with vemurafenib: 0.62

ZNF546
- cell gain with vemurafenib: 0.5
- lactate per cell with vemurafenib: 0.64

OR11H4
- cell gain with vemurafenib: 0.52
- lactate per cell with vemurafenib: 0.51

CYP17A1
- cell gain with vemurafenib: 1.06
- lactate per cell with vemurafenib: 0.73

CHIC2
- cell gain with vemurafenib: 0.95
- lactate per cell with vemurafenib: 0.74

SEL1L3
- cell gain with vemurafenib: 0.59 (active)
- lactate per cell with vemurafenib: 0.42

NUDT21
- cell gain with vemurafenib: 0.48
- lactate per cell with vemurafenib: 1.08

BCL11B
- cell gain with vemurafenib: 0
- lactate per cell with vemurafenib: 1.62

CMTM5
- cell gain with vemurafenib: 0.58
- lactate per cell with vemurafenib: 0.76

INSYN2A
- cell gain with vemurafenib: 0.59
- lactate per cell with vemurafenib: 1.15

MFSD1
- cell gain with vemurafenib: 0.9
- lactate per cell with vemurafenib: 1.14

RLF
- cell gain with vemurafenib: 0.61
- lactate per cell with vemurafenib: 1.24
